No constants are given. Whether binding was seen depends on the method and setting. In cells and extracts the contact can be indirect. A yes stands for co-enrichment or nearness to the bait. Other partners may have been found. Sequences can lack the tags named with a protein.
Target: T1, SPOROCYTELESS/NOZZLE (SPL/NZZ)-GFP (A. thaliana) (UniProt O81836)
T1 sequence: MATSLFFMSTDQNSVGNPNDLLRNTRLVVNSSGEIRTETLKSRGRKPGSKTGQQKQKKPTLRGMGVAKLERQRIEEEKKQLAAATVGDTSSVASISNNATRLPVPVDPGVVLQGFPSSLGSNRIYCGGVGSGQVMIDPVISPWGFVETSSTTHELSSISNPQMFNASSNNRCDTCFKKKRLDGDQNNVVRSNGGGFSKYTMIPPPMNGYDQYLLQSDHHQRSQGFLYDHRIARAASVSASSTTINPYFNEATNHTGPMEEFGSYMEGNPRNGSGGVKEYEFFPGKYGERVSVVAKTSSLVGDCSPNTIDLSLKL
Assay: affinity purification with mass spectrometry; Co-IP/MS: SPL/NZZ-GFP immunoprecipitated with the GFP antibody (µMACS GFP Isolation Kit) from nuclear extracts of unfixed SPL/NZZ:GFP AP1:GR ap1cal inflorescences at 9 DAI; three biological replicates; input as control; log2 intensity difference > 0, FDR ≤ 0.05

By UniProt entry, the sequences of proteins in these tests, tags left out.
UniProt P17839: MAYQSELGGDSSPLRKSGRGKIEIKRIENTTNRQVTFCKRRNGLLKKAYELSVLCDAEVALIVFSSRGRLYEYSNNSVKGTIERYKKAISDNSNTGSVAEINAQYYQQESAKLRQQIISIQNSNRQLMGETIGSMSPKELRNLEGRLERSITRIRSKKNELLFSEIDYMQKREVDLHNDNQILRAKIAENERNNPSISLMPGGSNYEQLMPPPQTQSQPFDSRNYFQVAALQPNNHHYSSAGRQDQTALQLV
UniProt Q9C7G4: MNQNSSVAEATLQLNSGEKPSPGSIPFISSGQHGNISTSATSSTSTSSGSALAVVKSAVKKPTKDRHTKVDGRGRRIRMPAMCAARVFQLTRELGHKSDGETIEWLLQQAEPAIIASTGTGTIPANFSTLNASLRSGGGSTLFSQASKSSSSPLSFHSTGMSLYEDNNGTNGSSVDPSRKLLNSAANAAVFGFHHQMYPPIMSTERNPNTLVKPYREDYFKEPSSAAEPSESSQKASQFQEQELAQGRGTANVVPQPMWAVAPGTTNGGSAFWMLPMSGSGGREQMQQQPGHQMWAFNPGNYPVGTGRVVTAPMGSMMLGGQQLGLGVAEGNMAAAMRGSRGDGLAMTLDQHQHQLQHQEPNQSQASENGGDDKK

Substance	binding
…2 (SEP2) (from UniProt P29384 1-250)	binds
…3 (SEP3), endogenous (from UniProt O22456 1-251)	binds
… (STK), endogenous (from UniProt Q38836 1-230)	binds
…OOF2 (SHP2) (from UniProt P29385 1-246)	binds

Further lines, results first:

binding	Substance
binds	AGAMOUS (AG), endogenous (from UniProt P17839 1-252)
binds	TCP22 (from UniProt Q9C7G4 1-375)
binds	…1 (SEP1) (from UniProt P29382 1-251)
